By UniProt entry, the sequences of proteins in these tests, tags left out.
UniProt Q0JBA9, entry or part of it: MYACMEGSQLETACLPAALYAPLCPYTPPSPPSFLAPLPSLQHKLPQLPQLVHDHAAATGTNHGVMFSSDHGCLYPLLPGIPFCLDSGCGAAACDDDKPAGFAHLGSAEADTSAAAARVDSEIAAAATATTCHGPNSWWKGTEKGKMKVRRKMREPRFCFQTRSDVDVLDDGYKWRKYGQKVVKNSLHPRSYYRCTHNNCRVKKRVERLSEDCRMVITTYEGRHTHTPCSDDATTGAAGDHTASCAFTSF

This is one part of the list.
Each sequence was assayed against OsWRKY34 (Oryza sativa, UniProt Q0JBA9 1-250) (assay: protein-binding microarray (RPBM); PBS, 2% BSA, 51.3 ng/ul salmon testes DNA, 50 uM zinc acetate, 200 nM TF, 25 C, 1 h; high values mean tight binding). Settings: protein: recombinant; tags: N-terminal polyhistidine and DsRed monomer fusion (pET32a); label: CyDye5-dUTP incorporated in the synthesized complementary strand; 3' TTTTT single-stranded linker to array surface; dsDNA, one strand shown.
Method in brief: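 For the binding signal, per-feature fluorescence intensity was read in arbitrary units on an Axon 4000B scanner. Before scanning, a 2% BSA-blocked custom Agilent array made double-stranded with Cy5-dUTP was washed after 1 h at 25 °C with 200 nM protein and 50 µM zinc acetate. The proteins were Ni–NTA-purified transcription factors with N-terminal polyhistidine and DsRed fusions, expressed in E. coli BL21-CodonPlus.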
“GCCGGACCCACCACCGCCACCACTGCCCATTCGCCACGTCCGGAGTCACCTAGTGCAG” was tested, and the binding signal was 13700 fluorescence intensity (a.u.).
For “TGACCTCACTTTTTTTTGTCACTTACATGCGGGCCCCACACGGAGTCACCTAGTGCAG”, the binding signal was 8460 fluorescence intensity (a.u.).
With “TAAACACACATCCTACCCAAACCCACGTATATATAAACCCCGGAGTCACCTAGTGCAG” the binding signal was 8630 fluorescence intensity (a.u.).
“GTGATTTTTGACTATTTACCTTGTATGGCTTGATTGCAACCGGAGTCACCTAGTGCAG” was tested, and the binding signal was 10000 fluorescence intensity (a.u.).
With “AGTAATCCCTACACGACACACAATCCCTACACTCTACCTGCGGAGTCACCTAGTGCAG” the binding signal was 8240 fluorescence intensity (a.u.).
In the case of “GTGCGGGAACTTTTTTTTTTGGTCATTTTTGTATGACGTGCGGAGTCACCTAGTGCAG”, the binding signal is reported as 8240 fluorescence intensity (a.u.).
For “CTTTTCCCTTAATCTCTATTGTTGTTCAATCATTCAACCCCGGAGTCACCTAGTGCAG”, the binding signal was 8840 fluorescence intensity (a.u.).
With “CTTGCACTGTTGGTCTTGGGCCGTCTCGTCGAATGTTCCGCGGAGTCACCTAGTGCAG” the binding signal was 9870 fluorescence intensity (a.u.).
For “CAGGGTTGGTCGCTACCACTTCGGAGGTGCCAGATCTGGCCGGAGTCACCTAGTGCAG”, the binding signal was 8310 fluorescence intensity (a.u.).
With “TCGGAGTGGGGAGATGGTGTCGGGGTGCTGGGTTTCCGGGCGGAGTCACCTAGTGCAG” the binding signal was 13100 fluorescence intensity (a.u.).
In the case of “TTACGAGCTCACATGTAATATTGTACATTTTTTCTCTTGACGGAGTCACCTAGTGCAG”, the binding signal is reported as 10100 fluorescence intensity (a.u.).
“CAGTGCGTGTCGTCGTTTCAAATTGGGCTCCATTTAAGTCCGGAGTCACCTAGTGCAG” was tested, and the binding signal was 8490 fluorescence intensity (a.u.).
With “GCGCGTCTCTCTCTCTCTCTCCTTCCGGGCAGCGCTTGCTCGGAGTCACCTAGTGCAG” the binding signal was 9760 fluorescence intensity (a.u.).
With “TTTTATCCCTCGAGGGGACATCCCCTTGTTTTATGCATGTCGGAGTCACCTAGTGCAG” the binding signal was 8790 fluorescence intensity (a.u.).
With “ATTCCTACCCGGACTCTTTATTTACCTTTCCCCAATTCTCCGGAGTCACCTAGTGCAG” the binding signal was 10200 fluorescence intensity (a.u.).
“ACTTCCCCTGTGTCCATGTTCGCCGCTGGTTCTTGATTCGCGGAGTCACCTAGTGCAG” was tested, and the binding signal was 10600 fluorescence intensity (a.u.).
“TTACACCGATATTTTTTTAGTTGATTTATAAATCTAATTTCGGAGTCACCTAGTGCAG” was tested, and the binding signal was 8240 fluorescence intensity (a.u.).
For “CTCTCAAAATAATGTCTTTTCACCTCTTGAATGCCATCTACGGAGTCACCTAGTGCAG”, the binding signal was 8850 fluorescence intensity (a.u.).
In the case of “CCAGTATCCCGAACCCTCTGGCCGTCCACTGTTCCTCGCCCGGAGTCACCTAGTGCAG”, the binding signal is reported as 10900 fluorescence intensity (a.u.).
“CCCACGCAGATCTCCGCTTTTTCCCGGCGGCAACCACGCCCGGAGTCACCTAGTGCAG” was tested, and the binding signal was 10200 fluorescence intensity (a.u.).
In the case of “GTCCCTGTCGCCTTTATTAGCTGCGTGCAATTCCTTTCCACGGAGTCACCTAGTGCAG”, the binding signal is reported as 8330 fluorescence intensity (a.u.).
“ACGTCTAAATCCAACTCCACCTCTGTAGTTTATTTCGTAACGGAGTCACCTAGTGCAG” was tested, and the binding signal was 8450 fluorescence intensity (a.u.).
In the case of “TGCCGTCCCTAGCTCCGCCCGCCTCCTCCTCCTCCGGTACCGGAGTCACCTAGTGCAG”, the binding signal is reported as 8650 fluorescence intensity (a.u.).
“TAATGGTTACCTGCCGGCCGTCCCTTCAACCACCAACAAACGGAGTCACCTAGTGCAG” was tested, and the binding signal was 10400 fluorescence intensity (a.u.).
“GTCGCACTCACTCACTCGCATCCTCTCCTCTCAAATACTCCGGAGTCACCTAGTGCAG” was tested, and the binding signal was 12300 fluorescence intensity (a.u.).
For “CGTGTAGTGTAAATGTTGGGGCAGGTGATATTAATGTTCCCGGAGTCACCTAGTGCAG”, the binding signal was 9980 fluorescence intensity (a.u.).
In the case of “GATGTTTGGGGTGCTTTTTGTAGTTTTTCCTGTATGTATTCGGAGTCACCTAGTGCAG”, the binding signal is reported as 12200 fluorescence intensity (a.u.).
With “ACATTCAAGTTACTTTCATATATTAAGTCAACGGTTCATTCGGAGTCACCTAGTGCAG” the binding signal was 8830 fluorescence intensity (a.u.).
With “CTCGTGTTCTAGTAGTTGTCAGTGTGTAGCCCATACCTATCGGAGTCACCTAGTGCAG” the binding signal was 8610 fluorescence intensity (a.u.).
In the case of “GCCCCACCACCCGTCGCCTCCGCTCTTCGCCGCGCCAGATCGGAGTCACCTAGTGCAG”, the binding signal is reported as 8840 fluorescence intensity (a.u.).
For “GTGGTGTGCATAAGAGGAAAAATTACTGATTACTAGTATTCGGAGTCACCTAGTGCAG”, the binding signal was 9740 fluorescence intensity (a.u.).
In the case of “ATAATGCGCGCTTCTTTTTCCAAATTGTGTTCTTAGTTGACGGAGTCACCTAGTGCAG”, the binding signal is reported as 8920 fluorescence intensity (a.u.).
“TTAACTTTTACTCTAATTTATTCTCCTGTACCTTTTTATACGGAGTCACCTAGTGCAG” was tested, and the binding signal was 8250 fluorescence intensity (a.u.).
With “GGATTAGGATCTTCTTCAGTCAACTATACGTCTGTATCGTCGGAGTCACCTAGTGCAG” the binding signal was 9360 fluorescence intensity (a.u.).
In the case of “CTCCACCCCACAATCTCTCTCTCTCTCTCTCTCTCTCTCTCGGAGTCACCTAGTGCAG”, the binding signal is reported as 9620 fluorescence intensity (a.u.).
For “AGTCCACTTACATGTGAGCCACACATGGTTTTTCTTTCTGCGGAGTCACCTAGTGCAG”, the binding signal was 10300 fluorescence intensity (a.u.).
In the case of “GCCGCGCTCGCCCATCGCCGCTCCGTCGCCACGCTCGCCCCGGAGTCACCTAGTGCAG”, the binding signal is reported as 9640 fluorescence intensity (a.u.).
In the case of “GTGTGTGGGTGGTGGTATATTTTTTTTCTTTCTCTTGGTTCGGAGTCACCTAGTGCAG”, the binding signal is reported as 12800 fluorescence intensity (a.u.).
With “GTAATTGGTTTGGTCAACAGCACAGCTAGCTTCTCCGTACCGGAGTCACCTAGTGCAG” the binding signal was 10300 fluorescence intensity (a.u.).
In the case of “TTGCCGTCGTCCGCCGCCCGCCCCTCTGCGCAGAGAGAGGCGGAGTCACCTAGTGCAG”, the binding signal is reported as 9540 fluorescence intensity (a.u.).
With “ACTCCCTCCGTTTCAAAATGTTTGACATCATTGACTTTTTCGGAGTCACCTAGTGCAG” the binding signal was 11100 fluorescence intensity (a.u.).
With “GCCCATCAAGGCTTTCACCCGCGTTTTCTCATTCAGTCCCCGGAGTCACCTAGTGCAG” the binding signal was 8300 fluorescence intensity (a.u.).

Reference: paper PMC7819943, “Rice protein-binding microarrays: a tool to detect cis-acting elements near promoter regions in rice”
